Read-outs that look alike come from different tables or passages of the source. Not every detail of the peptide structures is certain; ends, links or a residue may be inferred. Some of these results come from one statement about several compounds together.
Assays:
[1] = test system: JRFL (R5) luciferase reporter pseudovirions on HOS-CD4-CCR5; experiment: Pseudovirion entry assay, JRFL; type: cell-based, HIV-1; conditions: vs PIE12-trimer
Procedure: Pseudovirion assays were performed as previously described (Welch et al., 2010, J. Virol. 84:11235-44; Welch et al., 2007, Proc. Natl. Acad. Sci. 104:16827-16833, each of which is incorporated herein by reference in its entirety). Briefly, a six-point dilution series of each inhibitor was generated in quadruplicate on HOS-CD4-CXCR4 (for HXB2) or HOS-CD4-CCR5 (for JRFL) monolayers in 96 well plates, after which HXB2 (X4) or JRFL (R5) luciferase reporter pseudovirions were added. After 2 days, cells were lysed using GloLysis buffer (Promega) and BrightGlo luciferase substrate (Promega) was added. Luminescence was read on a PolarStar Optima (BMG) plate reader and normalized to uninhibited controls. Inhibition curves were plotted and fit to a standard IC50 equation for normalized data [(1−c/(IC50+c)], weighting each point by its standard error using KaleidaGraph (Synergy Software). Reported IC50 values are the average of at least two independent quadruplicate assays.

[2] = target: HXB2 (X4) luciferase reporter pseudovirions on HOS-CD4-CXCR4; conditions: values marked * from Francis, et al. Bioconjugates, read-out: Antiviral potency HXB2 (IC50); cited from earlier work
[3] = target: JRFL (R5) luciferase reporter pseudovirions on HOS-CD4-CCR5; conditions: cited from earlier work
HXB2 and JRFL strains = experiment: Pseudovirion entry assay, HXB2 and JRFL taken together; type: cell-based, HIV-1
[4] = JRFL pseudovirions, values marked * from Francis, et al. Bioconjugates, read-out: Antiviral potency JRFL (IC50)

Structure (SMILES) | improvement in potency against the JRFL strain [1] | IC50 [2] | IC50 ([3]; JRFL, Table 2 value from Francis, et al., read-out: potency against the JRFL strain) | increase in potency compared to unconjugated PIE12-trimer (HXB2 and JRFL strains) | IC50 [3, 4]
CC(=O)N[C@H](Cc1c[nH]cn1)C(=O)N1CCC[C@@H]1C(=O)N[C@@H]1CSSC[C@H](C(=O)N[C@H](CCC(=O)O)C(=O)N[C@H](CC(C)C)C(=O)NCC(=O)N[C@H](CCCCNC(=O)CCOCCOCCOCCOCCNC(=O)CCOCC(COCCC(=O)NCCOCCOCCOCCOCCC(=O)NCCCC[C@@H](NC(=O)CNC(=O)[C@@H](CC(C)C)NC(=O)[C@@H](CCC(=O)O)NC(=O)[C@H]2CSSC[C@@H](NC(=O)[C@H]3CCCN3C(=O)[C@@H](Cc3c[nH]cn3)NC(C)=O)C(=O)N[C@H](CC(=O)O)C(=O)N[C@H](Cc3ccc(O)cc3)C(=O)N3CCC[C@@H]3C(=O)N[C@H](CCC(=O)O)C(=O)N[C@H](Cc3c[nH]c4ccccc34)C(=O)N[C@H](CCC(N)=O)C(=O)N[C@H](Cc3c[nH]c4ccccc34)C(=O)N[C@H](CC(C)C)C(=O)N2)C(N)=O)(COCCC(=O)NCCOCCOCCOCCOCCC(=O)NCCCC[C@@H](NC(=O)CNC(=O)[C@@H](CC(C)C)NC(=O)[C@@H](CCC(=O)O)NC(=O)[C@H]2CSSC[C@@H](NC(=O)[C@H]3CCCN3C(=O)[C@@H](Cc3c[nH]cn3)NC(C)=O)C(=O)N[C@H](CC(=O)O)C(=O)N[C@H](Cc3ccc(O)cc3)C(=O)N3CCC[C@@H]3C(=O)N[C@H](CCC(=O)O)C(=O)N[C@H](Cc3c[nH]c4ccccc34)C(=O)N[C@H](CCC(N)=O)C(=O)N[C@H](Cc3c[nH]c4ccccc34)C(=O)N[C@H](CC(C)C)C(=O)N2)C(N)=O)NC(=O)CCOCCOCCOCCOCCOCCOCCOCCOCCOCCOCCOCCOCCOCCOCCOCCOCCOCCOCCOCCOCCOCCOCCOCCOCCNC(=O)CCN2C(=O)CC(S[C@H]3CC[C@@]4(C)C(=CC[C@H]5[C@@H]6CC[C@H]([C@H](C)CCCC(C)C)[C@@]6(C)CC[C@@H]54)C3)C2=O)C(N)=O)NC(=O)[C@@H](CC(C)C)NC(=O)[C@@H](Cc2c[nH]c3ccccc23)NC(=O)[C@@H](CCC(N)=O)NC(=O)[C@@H](Cc2c[nH]c3ccccc23)NC(=O)[C@@H](CCC(=O)O)NC(=O)[C@H]2CCCN2C(=O)[C@@H](Cc2ccc(O)cc2)NC(=O)[C@@H](CC(=O)O)NC1=O (stereo partly shown) [CPT24] | 110 fold | 13 ± 1.3 pM | 19 pM | – | –
CCCCCCCCCCCCCCCCCCSC1CC(=O)N(CCC(=O)NCCOCCOCCOCCOCCOCCOCCOCCOCCOCCOCCOCCOCCOCCOCCOCCOCCOCCOCCOCCOCCOCCOCCOCCOCCC(=O)NC(COCCC(=O)NCCOCCOCCOCCOCCC(=O)NCCCC[C@@H](NC(=O)CNC(=O)[C@@H](CC(C)C)NC(=O)[C@@H](CCC(=O)O)NC(=O)[C@H]2CSSC[C@@H](NC(=O)[C@H]3CCCN3C(=O)[C@@H](Cc3c[nH]cn3)NC(C)=O)C(=O)N[C@H](CC(=O)O)C(=O)N[C@H](Cc3ccc(O)cc3)C(=O)N3CCC[C@@H]3C(=O)N[C@H](CCC(=O)O)C(=O)N[C@H](Cc3c[nH]c4ccccc34)C(=O)N[C@H](CCC(N)=O)C(=O)N[C@H](Cc3c[nH]c4ccccc34)C(=O)N[C@H](CC(C)C)C(=O)N2)C(N)=O)(COCCC(=O)NCCOCCOCCOCCOCCC(=O)NCCCC[C@@H](NC(=O)CNC(=O)[C@@H](CC(C)C)NC(=O)[C@@H](CCC(=O)O)NC(=O)[C@H]2CSSC[C@@H](NC(=O)[C@H]3CCCN3C(=O)[C@@H](Cc3c[nH]cn3)NC(C)=O)C(=O)N[C@H](CC(=O)O)C(=O)N[C@H](Cc3ccc(O)cc3)C(=O)N3CCC[C@@H]3C(=O)N[C@H](CCC(=O)O)C(=O)N[C@H](Cc3c[nH]c4ccccc34)C(=O)N[C@H](CCC(N)=O)C(=O)N[C@H](Cc3c[nH]c4ccccc34)C(=O)N[C@H](CC(C)C)C(=O)N2)C(N)=O)COCCC(=O)NCCOCCOCCOCCOCCC(=O)NCCCC[C@@H](NC(=O)CNC(=O)[C@@H](CC(C)C)NC(=O)[C@@H](CCC(=O)O)NC(=O)[C@H]2CSSC[C@@H](NC(=O)[C@H]3CCCN3C(=O)[C@@H](Cc3c[nH]cn3)NC(C)=O)C(=O)N[C@H](CC(=O)O)C(=O)N[C@H](Cc3ccc(O)cc3)C(=O)N3CCC[C@@H]3C(=O)N[C@H](CCC(=O)O)C(=O)N[C@H](Cc3c[nH]c4ccccc34)C(=O)N[C@H](CCC(N)=O)C(=O)N[C@H](Cc3c[nH]c4ccccc34)C(=O)N[C@H](CC(C)C)C(=O)N2)C(N)=O)C1=O (stereo partly shown) [C18-PIE12-trimer] | – | 54 ± 18 pM | – | 8- to 24 fold | 87 ± 12 pM
CCCCCCCCCCCCCCCC(=O)N[C@H](CSC1CC(=O)N(CCC(=O)NCCOCCOCCOCCOCCOCCOCCOCCOCCOCCOCCOCCOCCOCCOCCOCCOCCOCCOCCOCCOCCOCCOCCOCCOCCC(=O)NC(COCCC(=O)NCCOCCOCCOCCOCCC(=O)NCCCC[C@@H](NC(=O)CNC(=O)[C@@H](CC(C)C)NC(=O)[C@@H](CCC(=O)O)NC(=O)[C@H]2CSSC[C@@H](NC(=O)[C@H]3CCCN3C(=O)[C@@H](Cc3c[nH]cn3)NC(C)=O)C(=O)N[C@H](CC(=O)O)C(=O)N[C@H](Cc3ccc(O)cc3)C(=O)N3CCC[C@@H]3C(=O)N[C@H](CCC(=O)O)C(=O)N[C@H](Cc3c[nH]c4ccccc34)C(=O)N[C@H](CCC(N)=O)C(=O)N[C@H](Cc3c[nH]c4ccccc34)C(=O)N[C@H](CC(C)C)C(=O)N2)C(N)=O)(COCCC(=O)NCCOCCOCCOCCOCCC(=O)NCCCC[C@@H](NC(=O)CNC(=O)[C@@H](CC(C)C)NC(=O)[C@@H](CCC(=O)O)NC(=O)[C@H]2CSSC[C@@H](NC(=O)[C@H]3CCCN3C(=O)[C@@H](Cc3c[nH]cn3)NC(C)=O)C(=O)N[C@H](CC(=O)O)C(=O)N[C@H](Cc3ccc(O)cc3)C(=O)N3CCC[C@@H]3C(=O)N[C@H](CCC(=O)O)C(=O)N[C@H](Cc3c[nH]c4ccccc34)C(=O)N[C@H](CCC(N)=O)C(=O)N[C@H](Cc3c[nH]c4ccccc34)C(=O)N[C@H](CC(C)C)C(=O)N2)C(N)=O)COCCC(=O)NCCOCCOCCOCCOCCC(=O)NCCCC[C@@H](NC(=O)CNC(=O)[C@@H](CC(C)C)NC(=O)[C@@H](CCC(=O)O)NC(=O)[C@H]2CSSC[C@@H](NC(=O)[C@H]3CCCN3C(=O)[C@@H](Cc3c[nH]cn3)NC(C)=O)C(=O)N[C@H](CC(=O)O)C(=O)N[C@H](Cc3ccc(O)cc3)C(=O)N3CCC[C@@H]3C(=O)N[C@H](CCC(=O)O)C(=O)N[C@H](Cc3c[nH]c4ccccc34)C(=O)N[C@H](CCC(N)=O)C(=O)N[C@H](Cc3c[nH]c4ccccc34)C(=O)N[C@H](CC(C)C)C(=O)N2)C(N)=O)C1=O)C(=O)O (stereo partly shown) [Palm-PIE12-trimer] | – | – | – | 3-4 fold | –
CCCCCCCCCCCCCCCCSC1CC(=O)N(CCC(=O)NCCOCCOCCOCCOCCOCCOCCOCCOCCOCCOCCOCCOCCOCCOCCOCCOCCOCCOCCOCCOCCOCCOCCOCCOCCC(=O)NC(COCCC(=O)NCCOCCOCCOCCOCCC(=O)NCCCC[C@@H](NC(=O)CNC(=O)[C@@H](CC(C)C)NC(=O)[C@@H](CCC(=O)O)NC(=O)[C@H]2CSSC[C@@H](NC(=O)[C@H]3CCCN3C(=O)[C@@H](Cc3c[nH]cn3)NC(C)=O)C(=O)N[C@H](CC(=O)O)C(=O)N[C@H](Cc3ccc(O)cc3)C(=O)N3CCC[C@@H]3C(=O)N[C@H](CCC(=O)O)C(=O)N[C@H](Cc3c[nH]c4ccccc34)C(=O)N[C@H](CCC(N)=O)C(=O)N[C@H](Cc3c[nH]c4ccccc34)C(=O)N[C@H](CC(C)C)C(=O)N2)C(N)=O)(COCCC(=O)NCCOCCOCCOCCOCCC(=O)NCCCC[C@@H](NC(=O)CNC(=O)[C@@H](CC(C)C)NC(=O)[C@@H](CCC(=O)O)NC(=O)[C@H]2CSSC[C@@H](NC(=O)[C@H]3CCCN3C(=O)[C@@H](Cc3c[nH]cn3)NC(C)=O)C(=O)N[C@H](CC(=O)O)C(=O)N[C@H](Cc3ccc(O)cc3)C(=O)N3CCC[C@@H]3C(=O)N[C@H](CCC(=O)O)C(=O)N[C@H](Cc3c[nH]c4ccccc34)C(=O)N[C@H](CCC(N)=O)C(=O)N[C@H](Cc3c[nH]c4ccccc34)C(=O)N[C@H](CC(C)C)C(=O)N2)C(N)=O)COCCC(=O)NCCOCCOCCOCCOCCC(=O)NCCCC[C@@H](NC(=O)CNC(=O)[C@@H](CC(C)C)NC(=O)[C@@H](CCC(=O)O)NC(=O)[C@H]2CSSC[C@@H](NC(=O)[C@H]3CCCN3C(=O)[C@@H](Cc3c[nH]cn3)NC(C)=O)C(=O)N[C@H](CC(=O)O)C(=O)N[C@H](Cc3ccc(O)cc3)C(=O)N3CCC[C@@H]3C(=O)N[C@H](CCC(=O)O)C(=O)N[C@H](Cc3c[nH]c4ccccc34)C(=O)N[C@H](CCC(N)=O)C(=O)N[C@H](Cc3c[nH]c4ccccc34)C(=O)N[C@H](CC(C)C)C(=O)N2)C(N)=O)C1=O (stereo partly shown) [C16-PIE12-Trimer] | – | 90 ± 14 pM | – | 8- to 24 fold | 110 ± 12 pM

Source: US10487121B2, “D-peptide inhibitors of HIV entry and methods of use” (priority 2016, dated 2019)
